Reference: article PMC12775136
Results are given in words; binding and its absence hold for the method and conditions named.

Molecular target: UPF2sΔAL (human)
Assay: SEC; analytical SEC, Superdex 200 Increase 3.2/300; 1000 pmol of 3′hExo and 2000 pmol of UPF2-AL; overnight at 4 °C; 20 mM HEPES pH 7.5, 75 mM NaCl, 5% glycerol, 1 mM MgCl2, 2 mM DTT; both purified

binding: no binding
B1: 3′hExofl (enzyme, UniProt Q8IV48 1-349)
chain: MEDPQSKEPAGEAVALALLESPRPEGGEEPPRPSPEETQQCKFDGQETKGSKFITSSASDFSDPVYKEIAITNGCINRMSKEELRAKLSEFKLETRGVKDVLKKRLKNYYKKQKLMLKESNFADSYYDYICIIDFEATCEEGNPPEFVHEIIEFPVVLLNTHTLEIEDTFQQYVRPEINTQLSDFCISLTGITQDQVDRADTFPQVLKKVIDWMKLKELGTKYKYSLLTDGSWDMSKFLNIQCQLSRLKYPPFAKKWINIRKSYGNFYKVPRSQTKLTIMLEKLGMDYDGRPHCGLDDSKNIARIAVRMLQDGCELRINEKMHAGQLMSVSSSLPIEGTPPPQMPHFRK
